PubChem BioAssay AID1259254, NCATS, 2017
In all, the deposit lists about 59,000 reagents; this is an unselected part. In the full data, about 1,550 (2.6%) are marked active. 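G2 share is only a proxy for re-replication; each gene was hit by three separate siRNAs, and active genes were retested.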 A number with no mark means an inactive call. Reagents against one gene are numbered here. Not all columns of the deposit are shown. The record does not give: the amount of reagent.

Screen: 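Gene knock-downs that lead to re-replication, shown by excess G2 DNA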 (primary screen)
System: human HCT116 colorectal cancer cells
Reagents: single siRNA against human genes
Timing: 3 days
Measured: 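Imaged Hoechst DNA stain sorts each cell into a cycle phase by DNA amount; per plate, G2 fraction set to 0% for non-targeting and 100% for GMNN siRNA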
Reading the numbers: G2 robust z-score and G2 cells, % of GMNN control: higher = more G2 cells, more excess DNA replication
Rule for the call: 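Active siRNAs have a G2 robust z of 5 or more median absolute deviations over the median, which in these data means about 38% or higher of GMNN control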

CLTB (clathrin light chain B) #1: G2 robust z-score = 0.783; G2 cells, % of GMNN control = 8.48
CLTB (clathrin light chain B) #2: G2 robust z-score = 1.7; G2 cells, % of GMNN control = 14.9
CLTB (clathrin light chain B) #3: G2 robust z-score = -0.247; G2 cells, % of GMNN control = 1.23
MRPL13 (mitochondrial ribosomal protein L13) #1: G2 robust z-score = 2.68; G2 cells, % of GMNN control = 21.8
MRPL13 (mitochondrial ribosomal protein L13) #2: G2 robust z-score = 2.78; G2 cells, % of GMNN control = 22.6
MRPL13 (mitochondrial ribosomal protein L13) #3: G2 robust z-score = 4.02; G2 cells, % of GMNN control = 31.3
LINC01118 (long independently transcribed non-coding RNA 1118) #1: G2 robust z-score = -1.03; G2 cells, % of GMNN control = -4.27
LINC01118 (long independently transcribed non-coding RNA 1118) #2: G2 robust z-score = 0.057; G2 cells, % of GMNN control = 3.37
LINC01118 (long independently transcribed non-coding RNA 1118) #3: G2 robust z-score = -0.57; G2 cells, % of GMNN control = -1.04
RABL2B (RAB, member of RAS oncogene family like 2B) #1: G2 robust z-score = -0.858; G2 cells, % of GMNN control = -3.07
RABL2B (RAB, member of RAS oncogene family like 2B) #2: G2 robust z-score = -0.249; G2 cells, % of GMNN control = 1.22
RABL2B (RAB, member of RAS oncogene family like 2B) #3: G2 robust z-score = -0.408; G2 cells, % of GMNN control = 0.0934
HSPA1B (heat shock protein family A (Hsp70) member 1B) #1: G2 robust z-score = -0.298; G2 cells, % of GMNN control = 0.868
HSPA1B (heat shock protein family A (Hsp70) member 1B) #2: G2 robust z-score = -0.537; G2 cells, % of GMNN control = -0.81
HSPA1B (heat shock protein family A (Hsp70) member 1B) #3: G2 robust z-score = -0.0294; G2 cells, % of GMNN control = 2.76
TMEM200B (transmembrane protein 200B) #1: G2 robust z-score = 1.2; G2 cells, % of GMNN control = 11.4
TMEM200B (transmembrane protein 200B) #2: G2 robust z-score = 5.65 (active); G2 cells, % of GMNN control = 42.8
TMEM200B (transmembrane protein 200B) #3: G2 robust z-score = -0.4; G2 cells, % of GMNN control = 0.15
GPR137C (G protein-coupled receptor 137C) #1: G2 robust z-score = -0.717; G2 cells, % of GMNN control = -2.08
GPR137C (G protein-coupled receptor 137C) #2: G2 robust z-score = -0.474; G2 cells, % of GMNN control = -0.371
GPR137C (G protein-coupled receptor 137C) #3: G2 robust z-score = -1.08; G2 cells, % of GMNN control = -4.66
KIF24 (kinesin family member 24) #1: G2 robust z-score = -1.29; G2 cells, % of GMNN control = -6.08
KIF24 (kinesin family member 24) #2: G2 robust z-score = -0.354; G2 cells, % of GMNN control = 0.477
KIF24 (kinesin family member 24) #3: G2 robust z-score = -0.711; G2 cells, % of GMNN control = -2.04

Entries above called active, once more:
TMEM200B (transmembrane protein 200B) #2: G2 robust z-score = 5.65 (active); G2 cells, % of GMNN control = 42.8
